Laboratory results from the supplement of paper PMC12823440, “Inhibitors supercharge kinase turnover through native proteolytic circuits” (Nature, 2025).
Counter-ions that a name gives are not always drawn. Some of the results follow. The calls rarely recur for the same compound in another form.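 Kinases were expressed as nanoluciferase fusions in K562 cells and luminescence was read every 4 h between 2 and 18 h as percent of control, DMSO set to 100% and a positive control to 0%. A time point counts as decreased when the signal drops significantly (2 sigma). The hit call is the authors' own, does not follow from the count of time points alone, and its rule is not shown.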

By UniProt entry, the sequences of proteins in these tests, tags left out. Where a name states a change or a piece, a line headed by the entry shows the natural chain unless it says otherwise.
UniProt P53667: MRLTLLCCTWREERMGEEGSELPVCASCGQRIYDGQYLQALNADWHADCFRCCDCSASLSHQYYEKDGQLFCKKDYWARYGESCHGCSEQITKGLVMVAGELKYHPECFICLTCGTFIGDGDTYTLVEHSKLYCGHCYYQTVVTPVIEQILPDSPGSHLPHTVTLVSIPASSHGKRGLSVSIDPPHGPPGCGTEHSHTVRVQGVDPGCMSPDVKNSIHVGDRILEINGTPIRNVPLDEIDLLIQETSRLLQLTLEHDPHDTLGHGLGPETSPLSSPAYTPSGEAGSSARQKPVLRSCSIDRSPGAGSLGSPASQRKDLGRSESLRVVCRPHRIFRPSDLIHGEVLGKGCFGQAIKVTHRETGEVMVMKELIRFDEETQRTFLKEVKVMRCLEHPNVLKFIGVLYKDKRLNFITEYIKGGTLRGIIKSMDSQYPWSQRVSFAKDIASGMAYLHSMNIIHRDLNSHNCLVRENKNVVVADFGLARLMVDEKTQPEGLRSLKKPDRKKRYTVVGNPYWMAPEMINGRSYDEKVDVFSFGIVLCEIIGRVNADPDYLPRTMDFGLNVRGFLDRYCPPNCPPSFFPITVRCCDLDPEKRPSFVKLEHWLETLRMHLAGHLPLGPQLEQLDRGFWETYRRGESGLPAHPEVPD
UniProt P53671: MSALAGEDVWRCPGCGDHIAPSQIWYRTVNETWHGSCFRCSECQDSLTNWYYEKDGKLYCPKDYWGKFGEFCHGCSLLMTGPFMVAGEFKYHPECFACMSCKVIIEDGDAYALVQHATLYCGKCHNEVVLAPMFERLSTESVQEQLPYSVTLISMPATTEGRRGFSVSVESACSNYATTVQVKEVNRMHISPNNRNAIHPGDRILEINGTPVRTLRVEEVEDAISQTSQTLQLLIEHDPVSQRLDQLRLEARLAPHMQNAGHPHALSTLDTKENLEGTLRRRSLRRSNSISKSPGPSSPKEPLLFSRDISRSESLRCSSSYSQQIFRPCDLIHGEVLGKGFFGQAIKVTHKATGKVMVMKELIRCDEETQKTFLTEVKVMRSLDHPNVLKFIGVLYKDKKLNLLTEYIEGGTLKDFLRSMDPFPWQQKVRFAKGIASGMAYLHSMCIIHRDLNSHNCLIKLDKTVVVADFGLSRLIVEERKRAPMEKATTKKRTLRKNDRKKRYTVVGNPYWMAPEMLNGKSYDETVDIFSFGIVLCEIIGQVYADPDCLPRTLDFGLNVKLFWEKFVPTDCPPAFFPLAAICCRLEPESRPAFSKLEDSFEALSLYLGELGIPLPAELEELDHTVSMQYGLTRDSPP
UniProt Q8IWU2: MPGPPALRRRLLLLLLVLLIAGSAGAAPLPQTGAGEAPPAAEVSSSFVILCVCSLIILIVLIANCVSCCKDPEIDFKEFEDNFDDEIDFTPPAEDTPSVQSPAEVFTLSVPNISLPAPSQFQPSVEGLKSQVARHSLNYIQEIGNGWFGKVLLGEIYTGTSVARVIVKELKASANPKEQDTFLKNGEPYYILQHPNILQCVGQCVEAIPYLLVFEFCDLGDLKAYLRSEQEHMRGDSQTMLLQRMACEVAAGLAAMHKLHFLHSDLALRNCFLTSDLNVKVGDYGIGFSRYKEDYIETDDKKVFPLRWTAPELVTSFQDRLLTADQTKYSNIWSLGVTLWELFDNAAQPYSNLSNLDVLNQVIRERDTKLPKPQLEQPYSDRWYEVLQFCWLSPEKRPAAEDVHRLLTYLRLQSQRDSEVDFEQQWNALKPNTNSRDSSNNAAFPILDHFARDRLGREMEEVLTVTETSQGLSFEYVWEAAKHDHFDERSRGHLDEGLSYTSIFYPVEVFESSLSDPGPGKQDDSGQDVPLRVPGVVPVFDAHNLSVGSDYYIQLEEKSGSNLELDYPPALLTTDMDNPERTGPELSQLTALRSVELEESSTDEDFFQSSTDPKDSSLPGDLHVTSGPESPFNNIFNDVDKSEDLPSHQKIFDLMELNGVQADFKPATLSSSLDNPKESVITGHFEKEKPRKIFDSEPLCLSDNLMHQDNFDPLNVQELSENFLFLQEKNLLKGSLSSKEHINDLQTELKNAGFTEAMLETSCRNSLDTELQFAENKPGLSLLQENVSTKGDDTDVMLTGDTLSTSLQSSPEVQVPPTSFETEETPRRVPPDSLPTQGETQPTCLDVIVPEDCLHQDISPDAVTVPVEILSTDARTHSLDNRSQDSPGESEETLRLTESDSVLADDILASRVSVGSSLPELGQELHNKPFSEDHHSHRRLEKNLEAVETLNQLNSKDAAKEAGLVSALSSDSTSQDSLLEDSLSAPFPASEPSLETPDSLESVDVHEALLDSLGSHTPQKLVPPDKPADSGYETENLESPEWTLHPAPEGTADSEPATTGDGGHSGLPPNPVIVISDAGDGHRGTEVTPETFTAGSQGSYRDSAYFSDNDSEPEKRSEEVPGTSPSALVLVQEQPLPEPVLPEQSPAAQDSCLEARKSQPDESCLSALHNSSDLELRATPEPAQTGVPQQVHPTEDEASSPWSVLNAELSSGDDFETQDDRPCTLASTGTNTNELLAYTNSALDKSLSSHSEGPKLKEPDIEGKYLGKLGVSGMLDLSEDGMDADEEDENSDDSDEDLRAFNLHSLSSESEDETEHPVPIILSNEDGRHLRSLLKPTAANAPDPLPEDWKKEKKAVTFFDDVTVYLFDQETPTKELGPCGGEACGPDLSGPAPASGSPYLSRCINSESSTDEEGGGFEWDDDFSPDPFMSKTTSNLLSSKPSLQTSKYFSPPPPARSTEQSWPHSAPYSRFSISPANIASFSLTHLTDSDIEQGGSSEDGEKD
UniProt Q12851: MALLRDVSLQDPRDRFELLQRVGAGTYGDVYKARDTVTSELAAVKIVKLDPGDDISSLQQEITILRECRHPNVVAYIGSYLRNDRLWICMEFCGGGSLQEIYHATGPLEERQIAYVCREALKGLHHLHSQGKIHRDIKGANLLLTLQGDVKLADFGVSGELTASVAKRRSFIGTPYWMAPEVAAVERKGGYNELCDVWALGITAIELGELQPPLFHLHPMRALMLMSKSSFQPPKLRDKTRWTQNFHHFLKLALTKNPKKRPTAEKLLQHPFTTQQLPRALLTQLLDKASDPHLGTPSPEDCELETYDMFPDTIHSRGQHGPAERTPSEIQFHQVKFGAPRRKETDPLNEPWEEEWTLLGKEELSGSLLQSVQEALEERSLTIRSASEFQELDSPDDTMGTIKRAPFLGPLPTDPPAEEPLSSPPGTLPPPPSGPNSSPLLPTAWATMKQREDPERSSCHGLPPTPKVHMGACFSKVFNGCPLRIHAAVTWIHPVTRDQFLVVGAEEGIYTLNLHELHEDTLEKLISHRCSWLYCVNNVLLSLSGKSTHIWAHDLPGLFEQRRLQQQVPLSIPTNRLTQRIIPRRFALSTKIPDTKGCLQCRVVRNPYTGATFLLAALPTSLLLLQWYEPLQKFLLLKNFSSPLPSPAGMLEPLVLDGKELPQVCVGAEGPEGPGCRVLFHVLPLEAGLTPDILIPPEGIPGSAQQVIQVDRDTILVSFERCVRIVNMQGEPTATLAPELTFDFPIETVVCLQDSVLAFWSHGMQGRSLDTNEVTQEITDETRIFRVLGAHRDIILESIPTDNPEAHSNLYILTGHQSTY
UniProt P49137, whole entry, looked up: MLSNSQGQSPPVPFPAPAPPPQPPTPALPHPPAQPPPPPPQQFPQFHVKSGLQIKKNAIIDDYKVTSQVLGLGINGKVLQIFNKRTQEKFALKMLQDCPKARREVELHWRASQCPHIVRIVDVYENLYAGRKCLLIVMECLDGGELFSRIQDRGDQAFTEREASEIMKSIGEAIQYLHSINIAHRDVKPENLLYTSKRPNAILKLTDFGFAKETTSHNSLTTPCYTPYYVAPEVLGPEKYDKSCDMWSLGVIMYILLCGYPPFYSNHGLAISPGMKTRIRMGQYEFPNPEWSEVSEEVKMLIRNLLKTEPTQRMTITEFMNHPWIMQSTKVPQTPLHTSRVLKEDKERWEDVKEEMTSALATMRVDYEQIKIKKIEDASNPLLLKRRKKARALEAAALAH
UniProt Q9BUB5: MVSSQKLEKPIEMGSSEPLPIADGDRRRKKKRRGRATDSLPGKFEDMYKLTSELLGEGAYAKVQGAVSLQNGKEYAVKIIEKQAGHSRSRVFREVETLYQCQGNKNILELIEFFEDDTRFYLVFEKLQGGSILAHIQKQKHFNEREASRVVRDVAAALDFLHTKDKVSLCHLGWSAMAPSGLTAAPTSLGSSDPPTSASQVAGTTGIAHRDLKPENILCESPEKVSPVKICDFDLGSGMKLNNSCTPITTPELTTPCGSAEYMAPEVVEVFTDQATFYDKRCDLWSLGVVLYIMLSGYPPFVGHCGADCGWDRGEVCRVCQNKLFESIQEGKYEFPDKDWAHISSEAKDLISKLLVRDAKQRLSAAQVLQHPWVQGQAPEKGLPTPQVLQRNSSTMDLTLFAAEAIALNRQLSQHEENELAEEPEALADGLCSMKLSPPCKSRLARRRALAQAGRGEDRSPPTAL
UniProt O96013: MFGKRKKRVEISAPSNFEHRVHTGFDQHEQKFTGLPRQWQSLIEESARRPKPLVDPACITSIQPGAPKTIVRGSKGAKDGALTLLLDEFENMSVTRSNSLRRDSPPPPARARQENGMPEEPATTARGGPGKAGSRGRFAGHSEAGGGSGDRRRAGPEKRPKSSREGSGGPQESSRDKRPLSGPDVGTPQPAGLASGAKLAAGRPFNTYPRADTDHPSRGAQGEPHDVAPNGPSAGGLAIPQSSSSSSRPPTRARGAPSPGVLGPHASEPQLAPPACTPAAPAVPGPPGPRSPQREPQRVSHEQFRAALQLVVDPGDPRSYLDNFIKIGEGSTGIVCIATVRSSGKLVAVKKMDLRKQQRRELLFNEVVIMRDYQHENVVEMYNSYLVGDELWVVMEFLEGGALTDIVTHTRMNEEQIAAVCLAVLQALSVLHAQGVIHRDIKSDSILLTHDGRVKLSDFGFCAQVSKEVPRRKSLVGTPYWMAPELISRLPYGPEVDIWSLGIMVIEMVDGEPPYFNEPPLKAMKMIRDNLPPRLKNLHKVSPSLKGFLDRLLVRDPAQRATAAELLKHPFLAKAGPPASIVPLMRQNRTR
UniProt Q96KB5: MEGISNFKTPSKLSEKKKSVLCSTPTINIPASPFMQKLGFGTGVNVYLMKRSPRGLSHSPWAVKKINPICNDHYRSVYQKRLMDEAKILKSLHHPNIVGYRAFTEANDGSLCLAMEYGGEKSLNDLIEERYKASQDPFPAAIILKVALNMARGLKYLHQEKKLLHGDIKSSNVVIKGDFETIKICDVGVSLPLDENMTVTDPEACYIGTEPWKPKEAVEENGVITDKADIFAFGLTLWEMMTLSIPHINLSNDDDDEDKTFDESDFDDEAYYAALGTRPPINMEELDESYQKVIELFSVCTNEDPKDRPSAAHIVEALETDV
UniProt P09619, whole entry: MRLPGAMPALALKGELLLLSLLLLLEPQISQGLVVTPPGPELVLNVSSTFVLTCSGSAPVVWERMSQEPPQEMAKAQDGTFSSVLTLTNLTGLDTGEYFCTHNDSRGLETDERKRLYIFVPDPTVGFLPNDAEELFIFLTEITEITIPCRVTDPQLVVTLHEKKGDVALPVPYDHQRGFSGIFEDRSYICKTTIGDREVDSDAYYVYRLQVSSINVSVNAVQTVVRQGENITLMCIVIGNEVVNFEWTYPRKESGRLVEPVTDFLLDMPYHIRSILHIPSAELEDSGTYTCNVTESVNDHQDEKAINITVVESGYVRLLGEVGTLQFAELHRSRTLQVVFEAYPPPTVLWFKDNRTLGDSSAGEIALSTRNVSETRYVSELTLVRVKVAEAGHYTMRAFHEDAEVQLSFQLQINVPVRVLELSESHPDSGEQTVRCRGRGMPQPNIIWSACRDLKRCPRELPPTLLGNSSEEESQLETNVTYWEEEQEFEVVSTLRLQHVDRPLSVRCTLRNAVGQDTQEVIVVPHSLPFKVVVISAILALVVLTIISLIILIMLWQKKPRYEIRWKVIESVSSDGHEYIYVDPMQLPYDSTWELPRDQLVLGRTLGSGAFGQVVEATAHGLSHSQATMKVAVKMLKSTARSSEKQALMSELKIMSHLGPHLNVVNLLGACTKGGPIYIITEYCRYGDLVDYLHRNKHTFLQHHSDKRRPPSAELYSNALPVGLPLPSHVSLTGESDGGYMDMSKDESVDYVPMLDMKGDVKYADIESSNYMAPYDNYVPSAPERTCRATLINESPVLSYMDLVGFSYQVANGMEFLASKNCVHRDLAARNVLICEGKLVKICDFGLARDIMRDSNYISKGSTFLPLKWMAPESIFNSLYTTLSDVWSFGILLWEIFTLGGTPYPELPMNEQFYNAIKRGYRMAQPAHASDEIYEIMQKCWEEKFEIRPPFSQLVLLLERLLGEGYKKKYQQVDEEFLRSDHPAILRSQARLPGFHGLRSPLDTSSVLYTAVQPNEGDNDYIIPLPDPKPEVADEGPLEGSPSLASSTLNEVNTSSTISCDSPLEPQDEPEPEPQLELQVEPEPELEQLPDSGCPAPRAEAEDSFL

Columns and labels:
Assay in all cases: kinase-Nluc reporter destabilization hit call (1 = scored as downregulated) (binary); higher = compound decreases kinase abundance
Details in all cases: K562; 2-18 h
IRAK3 = IRAK3 (UniProt Q9Y616)
JAK1 = JAK1 (UniProt P23458)
LCK = LCK (UniProt P06239)
LIMK1 = LIMK1 (UniProt P53667)
LIMK2 = LIMK2 (UniProt P53671)
LMTK2 = LMTK2 (UniProt Q8IWU2)
LYN = LYN (UniProt P07948)
MAP2K1 = MAP2K1 (UniProt Q02750)
MAP2K2 = MAP2K2 (UniProt P36507)
MAP4K2 = MAP4K2 (UniProt Q12851)
MAPK1 = MAPK1 (UniProt P28482)
MAPK4 = MAPK4 (UniProt P31152)
MAPKAPK2 = MAPKAPK2 (UniProt P49137)
MKNK1 = MKNK1 (UniProt Q9BUB5)
NTRK2 = NTRK2 (UniProt Q16620)
NTRK3 = NTRK3 (UniProt Q16288)
PAK4 = PAK4 (UniProt O96013)
PBK = PBK (UniProt Q96KB5)
PDGFRB = PDGFRB (UniProt P09619)
PDK1 = PDK1 (UniProt Q15118)

SMILES | kinase-Nluc reporter destabilization hit call (IRAK3) | kinase-Nluc reporter destabilization hit call (JAK1) | kinase-Nluc reporter destabilization hit call (LCK) | kinase-Nluc reporter destabilization hit call (LIMK1) | kinase-Nluc reporter destabilization hit call (LIMK2) | kinase-Nluc reporter destabilization hit call (LMTK2) | kinase-Nluc reporter destabilization hit call (LYN) | kinase-Nluc reporter destabilization hit call (MAP2K1) | kinase-Nluc reporter destabilization hit call (MAP2K2) | kinase-Nluc reporter destabilization hit call (MAP4K2) | kinase-Nluc reporter destabilization hit call (MAPK1) | kinase-Nluc reporter destabilization hit call (MAPK4) | kinase-Nluc reporter destabilization hit call (MAPKAPK2) | kinase-Nluc reporter destabilization hit call (MKNK1) | kinase-Nluc reporter destabilization hit call (NTRK2) | kinase-Nluc reporter destabilization hit call (NTRK3) | kinase-Nluc reporter destabilization hit call (PAK4) | kinase-Nluc reporter destabilization hit call (PBK) | kinase-Nluc reporter destabilization hit call (PDGFRB) | kinase-Nluc reporter destabilization hit call (PDK1)
CC#CC(=O)N1CC[C@@H](n2c(=O)n(-c3ccc(Oc4ccccc4)cc3)c3c(N)ncnc32)C1 [Tirabrutinib (hydrochloride)] (10 µM) | inactive: 0 | inactive: 0 | inactive: 0 | inactive: 0 | inactive: 0 | inactive: 0 | inactive: 0 | inactive: 0 | inactive: 0 | inactive: 0 | inactive: 0 | inactive: 0 | inactive: 0 | inactive: 0 | inactive: 0 | inactive: 0 | inactive: 0 | inactive: 0 | inactive: 0 | inactive: 0
c1cncc(CN2CCC(n3ncc4c(N5CCOCC5)nc(-c5ccc6[nH]ccc6c5)nc43)CC2)c1 (10 µM) | inactive: 0 | inactive: 0 | inactive: 0 | active: 1 | inactive: 0 | inactive: 0 | inactive: 0 | inactive: 0 | inactive: 0 | inactive: 0 | inactive: 0 | inactive: 0 | inactive: 0 | inactive: 0 | inactive: 0 | inactive: 0 | inactive: 0 | inactive: 0 | inactive: 0 | inactive: 0
CC(=O)c1c(C)cc2cccc(O)c2c1O [Nepodin] (10 µM) | inactive: 0 | inactive: 0 | inactive: 0 | inactive: 0 | inactive: 0 | inactive: 0 | inactive: 0 | inactive: 0 | inactive: 0 | inactive: 0 | inactive: 0 | inactive: 0 | inactive: 0 | inactive: 0 | inactive: 0 | inactive: 0 | inactive: 0 | inactive: 0 | inactive: 0 | inactive: 0
Nc1nc(F)nc2c1ncn2[C@@H]1O[C@H](CO)[C@@H](O)[C@@H]1O [Fludarabine] (10 µM) | inactive: 0 | inactive: 0 | inactive: 0 | inactive: 0 | inactive: 0 | inactive: 0 | inactive: 0 | inactive: 0 | inactive: 0 | inactive: 0 | inactive: 0 | inactive: 0 | inactive: 0 | inactive: 0 | inactive: 0 | inactive: 0 | inactive: 0 | inactive: 0 | inactive: 0 | inactive: 0
COc1ncc(Cl)cc1S(=O)(=O)Nc1ccc(F)c(C#Cc2cnc(N)nc2)c1F (2.5 µM) | inactive: 0 | inactive: 0 | inactive: 0 | inactive: 0 | inactive: 0 | inactive: 0 | inactive: 0 | inactive: 0 | inactive: 0 | inactive: 0 | inactive: 0 | inactive: 0 | inactive: 0 | inactive: 0 | inactive: 0 | inactive: 0 | inactive: 0 | inactive: 0 | inactive: 0 | inactive: 0
CCS(=O)(=O)Nc1ccc2[nH]c(O)c(C(=Nc3ccc(CN4CCCCC4)cc3)c3ccccc3)c2c1 [Hesperadin] (2.5 µM) | inactive: 0 | inactive: 0 | inactive: 0 | inactive: 0 | inactive: 0 | inactive: 0 | inactive: 0 | inactive: 0 | inactive: 0 | inactive: 0 | inactive: 0 | inactive: 0 | inactive: 0 | inactive: 0 | inactive: 0 | inactive: 0 | inactive: 0 | inactive: 0 | inactive: 0 | inactive: 0
Nc1ccc(-c2cnc(N)c(-c3ccc(Cl)cc3)c2)cn1 (10 µM) | inactive: 0 | inactive: 0 | inactive: 0 | inactive: 0 | inactive: 0 | inactive: 0 | inactive: 0 | inactive: 0 | inactive: 0 | inactive: 0 | inactive: 0 | inactive: 0 | inactive: 0 | inactive: 0 | inactive: 0 | inactive: 0 | inactive: 0 | inactive: 0 | inactive: 0 | inactive: 0
C[C@@H]1CCN(C(=O)CC#N)C[C@@H]1N(C)c1ncnc2[nH]ccc12 [Tofacitinib (citrate)] (10 µM) | inactive: 0 | – | inactive: 0 | inactive: 0 | inactive: 0 | inactive: 0 | inactive: 0 | inactive: 0 | inactive: 0 | inactive: 0 | inactive: 0 | inactive: 0 | inactive: 0 | inactive: 0 | inactive: 0 | inactive: 0 | inactive: 0 | inactive: 0 | – | inactive: 0
O=C1Nc2ccc(C(=O)c3ccco3)cc2C1=Cc1cc(Cl)c(O)c(Cl)c1 (2.5 µM) | inactive: 0 | inactive: 0 | inactive: 0 | inactive: 0 | inactive: 0 | inactive: 0 | inactive: 0 | inactive: 0 | inactive: 0 | inactive: 0 | inactive: 0 | inactive: 0 | inactive: 0 | inactive: 0 | inactive: 0 | inactive: 0 | inactive: 0 | inactive: 0 | inactive: 0 | inactive: 0
CCOc1ccc2cc(-c3nn(CC4CCN(C)CC4)c4ncnc(N)c34)ccc2n1 (10 µM) | inactive: 0 | inactive: 0 | inactive: 0 | inactive: 0 | inactive: 0 | inactive: 0 | inactive: 0 | inactive: 0 | inactive: 0 | inactive: 0 | inactive: 0 | inactive: 0 | inactive: 0 | inactive: 0 | inactive: 0 | inactive: 0 | inactive: 0 | inactive: 0 | inactive: 0 | inactive: 0
NC(=O)c1ccc2[nH]ccc2c1 (10 µM) | inactive: 0 | inactive: 0 | inactive: 0 | inactive: 0 | inactive: 0 | inactive: 0 | inactive: 0 | inactive: 0 | inactive: 0 | inactive: 0 | inactive: 0 | inactive: 0 | inactive: 0 | inactive: 0 | inactive: 0 | inactive: 0 | inactive: 0 | inactive: 0 | inactive: 0 | inactive: 0
Cn1cnc2c(F)c(Nc3ccc(Br)cc3Cl)c(C(=O)NOCCO)cc21 [Selumetinib (sulfate)] (10 µM) | inactive: 0 | inactive: 0 | inactive: 0 | inactive: 0 | inactive: 0 | inactive: 0 | inactive: 0 | inactive: 0 | inactive: 0 | inactive: 0 | inactive: 0 | inactive: 0 | inactive: 0 | inactive: 0 | inactive: 0 | inactive: 0 | inactive: 0 | inactive: 0 | inactive: 0 | inactive: 0
Cc1ccccc1-n1c([C@H](C)Nc2nc(N)nc3nc[nH]c23)nc2cccc(C)c2c1=O [CAL-130 (Hydrochloride)] (10 µM) | inactive: 0 | inactive: 0 | inactive: 0 | inactive: 0 | inactive: 0 | inactive: 0 | inactive: 0 | inactive: 0 | inactive: 0 | inactive: 0 | inactive: 0 | inactive: 0 | inactive: 0 | inactive: 0 | inactive: 0 | inactive: 0 | inactive: 0 | inactive: 0 | inactive: 0 | inactive: 0
